According to the supplement of paper PMC12595434, “Development of retinoid nuclear receptor pathway antagonists through targeting aldehyde dehydrogenase 1A3” (iScience, 2025):
This is one part of the list. The data scatter; read single values as rough.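 Tm was set to 64 °C where no melting was found, and many curves are irregular.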

By UniProt entry, the sequences of proteins in these tests, tags left out. Where a name states a change or a piece, a line headed by the entry shows the natural chain unless it says otherwise.
UniProt O15121: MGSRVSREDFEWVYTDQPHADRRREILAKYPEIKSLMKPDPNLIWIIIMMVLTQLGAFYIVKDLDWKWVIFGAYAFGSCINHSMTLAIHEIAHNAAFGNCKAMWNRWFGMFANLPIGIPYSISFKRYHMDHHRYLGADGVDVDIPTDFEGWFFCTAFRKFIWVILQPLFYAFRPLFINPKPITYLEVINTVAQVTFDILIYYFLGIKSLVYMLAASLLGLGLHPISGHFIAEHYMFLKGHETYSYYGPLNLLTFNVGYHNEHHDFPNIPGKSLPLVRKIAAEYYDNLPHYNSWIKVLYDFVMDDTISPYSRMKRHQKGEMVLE
UniProt O00754: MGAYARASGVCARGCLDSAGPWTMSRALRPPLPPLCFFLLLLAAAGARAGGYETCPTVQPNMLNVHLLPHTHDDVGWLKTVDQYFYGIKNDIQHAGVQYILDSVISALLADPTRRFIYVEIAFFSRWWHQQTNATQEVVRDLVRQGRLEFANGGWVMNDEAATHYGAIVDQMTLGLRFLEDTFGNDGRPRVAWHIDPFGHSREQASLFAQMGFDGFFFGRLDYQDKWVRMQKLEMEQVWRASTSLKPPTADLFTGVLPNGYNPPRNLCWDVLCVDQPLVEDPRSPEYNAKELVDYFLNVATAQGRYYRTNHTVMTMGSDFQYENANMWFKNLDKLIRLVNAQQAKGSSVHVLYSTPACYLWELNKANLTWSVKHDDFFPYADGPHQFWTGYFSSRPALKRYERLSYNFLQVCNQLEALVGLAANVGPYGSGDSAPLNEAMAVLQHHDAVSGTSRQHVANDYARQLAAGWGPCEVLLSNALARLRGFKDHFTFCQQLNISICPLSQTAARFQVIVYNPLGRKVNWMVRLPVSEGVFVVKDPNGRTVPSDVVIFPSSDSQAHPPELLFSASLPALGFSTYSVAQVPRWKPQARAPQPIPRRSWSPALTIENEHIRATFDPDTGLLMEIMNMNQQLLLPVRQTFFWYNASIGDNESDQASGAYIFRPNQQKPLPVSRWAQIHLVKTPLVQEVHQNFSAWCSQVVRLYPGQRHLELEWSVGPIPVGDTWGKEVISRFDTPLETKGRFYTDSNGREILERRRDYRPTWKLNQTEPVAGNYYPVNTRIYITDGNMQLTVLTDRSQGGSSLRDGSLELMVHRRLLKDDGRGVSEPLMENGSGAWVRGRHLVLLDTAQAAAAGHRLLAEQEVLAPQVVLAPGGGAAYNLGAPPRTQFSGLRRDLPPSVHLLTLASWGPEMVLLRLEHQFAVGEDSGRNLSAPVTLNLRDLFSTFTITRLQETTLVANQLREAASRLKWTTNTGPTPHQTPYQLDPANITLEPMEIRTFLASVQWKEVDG
UniProt O15040: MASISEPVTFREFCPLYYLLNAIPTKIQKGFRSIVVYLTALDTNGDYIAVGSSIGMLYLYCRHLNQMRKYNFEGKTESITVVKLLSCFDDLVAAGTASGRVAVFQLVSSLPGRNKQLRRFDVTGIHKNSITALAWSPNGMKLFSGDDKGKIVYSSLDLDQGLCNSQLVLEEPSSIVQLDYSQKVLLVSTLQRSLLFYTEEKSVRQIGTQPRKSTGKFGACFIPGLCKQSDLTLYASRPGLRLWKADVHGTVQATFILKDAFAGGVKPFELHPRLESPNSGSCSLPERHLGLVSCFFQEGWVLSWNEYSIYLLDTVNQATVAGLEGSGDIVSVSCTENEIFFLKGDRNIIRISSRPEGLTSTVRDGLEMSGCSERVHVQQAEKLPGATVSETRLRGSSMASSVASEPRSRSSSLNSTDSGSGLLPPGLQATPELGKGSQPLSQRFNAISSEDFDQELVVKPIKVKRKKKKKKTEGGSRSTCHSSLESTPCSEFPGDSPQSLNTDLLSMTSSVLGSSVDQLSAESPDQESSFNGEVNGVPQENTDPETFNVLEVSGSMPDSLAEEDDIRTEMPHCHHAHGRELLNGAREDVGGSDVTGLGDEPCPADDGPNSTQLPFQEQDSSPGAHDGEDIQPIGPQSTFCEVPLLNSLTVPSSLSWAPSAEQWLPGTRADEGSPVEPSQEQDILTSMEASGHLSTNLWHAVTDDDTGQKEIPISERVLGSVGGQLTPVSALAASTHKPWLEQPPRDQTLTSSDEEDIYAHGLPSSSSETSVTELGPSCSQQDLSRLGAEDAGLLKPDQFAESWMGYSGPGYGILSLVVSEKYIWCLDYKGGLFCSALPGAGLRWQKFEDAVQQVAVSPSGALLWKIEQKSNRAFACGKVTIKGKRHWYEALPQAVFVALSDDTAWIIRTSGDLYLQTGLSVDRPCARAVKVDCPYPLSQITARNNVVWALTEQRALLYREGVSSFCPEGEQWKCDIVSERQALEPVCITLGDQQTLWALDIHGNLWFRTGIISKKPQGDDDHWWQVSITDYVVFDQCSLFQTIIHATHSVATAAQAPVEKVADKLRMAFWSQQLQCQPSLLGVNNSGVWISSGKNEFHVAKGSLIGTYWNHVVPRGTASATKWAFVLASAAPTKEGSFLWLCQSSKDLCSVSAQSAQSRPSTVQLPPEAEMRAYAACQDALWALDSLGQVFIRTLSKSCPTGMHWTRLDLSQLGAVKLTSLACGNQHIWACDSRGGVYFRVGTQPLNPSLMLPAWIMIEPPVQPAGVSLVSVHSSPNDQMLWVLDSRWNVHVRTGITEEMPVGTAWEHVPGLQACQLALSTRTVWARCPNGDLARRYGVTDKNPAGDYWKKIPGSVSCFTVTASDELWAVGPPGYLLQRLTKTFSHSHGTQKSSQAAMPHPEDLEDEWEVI
UniProt O14607, whole entry: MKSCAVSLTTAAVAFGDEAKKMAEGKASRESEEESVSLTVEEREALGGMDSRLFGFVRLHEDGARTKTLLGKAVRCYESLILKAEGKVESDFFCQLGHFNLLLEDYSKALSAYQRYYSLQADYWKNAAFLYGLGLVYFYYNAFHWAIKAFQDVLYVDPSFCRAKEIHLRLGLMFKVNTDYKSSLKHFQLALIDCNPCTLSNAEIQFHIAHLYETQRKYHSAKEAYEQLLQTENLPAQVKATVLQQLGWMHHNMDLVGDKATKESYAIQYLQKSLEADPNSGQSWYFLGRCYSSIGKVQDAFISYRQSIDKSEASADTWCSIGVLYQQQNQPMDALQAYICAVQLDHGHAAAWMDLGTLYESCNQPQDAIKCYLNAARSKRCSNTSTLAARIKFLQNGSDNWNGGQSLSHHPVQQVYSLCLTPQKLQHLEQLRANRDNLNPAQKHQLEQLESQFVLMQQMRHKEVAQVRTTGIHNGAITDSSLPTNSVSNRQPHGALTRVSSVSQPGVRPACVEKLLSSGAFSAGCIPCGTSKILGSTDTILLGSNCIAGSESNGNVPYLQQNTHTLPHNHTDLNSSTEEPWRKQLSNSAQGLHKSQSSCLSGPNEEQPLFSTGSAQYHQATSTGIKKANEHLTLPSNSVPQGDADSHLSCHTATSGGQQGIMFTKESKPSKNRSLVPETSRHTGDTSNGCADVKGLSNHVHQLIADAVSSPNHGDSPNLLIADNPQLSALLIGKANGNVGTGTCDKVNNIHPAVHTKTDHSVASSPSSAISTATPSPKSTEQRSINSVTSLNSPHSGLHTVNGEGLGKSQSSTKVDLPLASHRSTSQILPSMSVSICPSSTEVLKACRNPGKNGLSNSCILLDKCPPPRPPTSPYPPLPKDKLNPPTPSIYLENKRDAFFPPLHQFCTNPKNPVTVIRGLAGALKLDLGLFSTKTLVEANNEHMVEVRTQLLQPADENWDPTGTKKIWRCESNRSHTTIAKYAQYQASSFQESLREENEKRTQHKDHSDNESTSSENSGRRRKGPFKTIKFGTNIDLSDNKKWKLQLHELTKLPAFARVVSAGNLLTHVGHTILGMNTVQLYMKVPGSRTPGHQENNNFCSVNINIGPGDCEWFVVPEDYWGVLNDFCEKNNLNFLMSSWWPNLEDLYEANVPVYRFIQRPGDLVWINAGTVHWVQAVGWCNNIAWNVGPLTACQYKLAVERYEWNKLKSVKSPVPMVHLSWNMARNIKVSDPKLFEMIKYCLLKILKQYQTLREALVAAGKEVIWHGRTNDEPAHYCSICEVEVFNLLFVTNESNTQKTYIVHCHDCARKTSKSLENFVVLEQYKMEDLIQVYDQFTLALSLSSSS
UniProt O00562: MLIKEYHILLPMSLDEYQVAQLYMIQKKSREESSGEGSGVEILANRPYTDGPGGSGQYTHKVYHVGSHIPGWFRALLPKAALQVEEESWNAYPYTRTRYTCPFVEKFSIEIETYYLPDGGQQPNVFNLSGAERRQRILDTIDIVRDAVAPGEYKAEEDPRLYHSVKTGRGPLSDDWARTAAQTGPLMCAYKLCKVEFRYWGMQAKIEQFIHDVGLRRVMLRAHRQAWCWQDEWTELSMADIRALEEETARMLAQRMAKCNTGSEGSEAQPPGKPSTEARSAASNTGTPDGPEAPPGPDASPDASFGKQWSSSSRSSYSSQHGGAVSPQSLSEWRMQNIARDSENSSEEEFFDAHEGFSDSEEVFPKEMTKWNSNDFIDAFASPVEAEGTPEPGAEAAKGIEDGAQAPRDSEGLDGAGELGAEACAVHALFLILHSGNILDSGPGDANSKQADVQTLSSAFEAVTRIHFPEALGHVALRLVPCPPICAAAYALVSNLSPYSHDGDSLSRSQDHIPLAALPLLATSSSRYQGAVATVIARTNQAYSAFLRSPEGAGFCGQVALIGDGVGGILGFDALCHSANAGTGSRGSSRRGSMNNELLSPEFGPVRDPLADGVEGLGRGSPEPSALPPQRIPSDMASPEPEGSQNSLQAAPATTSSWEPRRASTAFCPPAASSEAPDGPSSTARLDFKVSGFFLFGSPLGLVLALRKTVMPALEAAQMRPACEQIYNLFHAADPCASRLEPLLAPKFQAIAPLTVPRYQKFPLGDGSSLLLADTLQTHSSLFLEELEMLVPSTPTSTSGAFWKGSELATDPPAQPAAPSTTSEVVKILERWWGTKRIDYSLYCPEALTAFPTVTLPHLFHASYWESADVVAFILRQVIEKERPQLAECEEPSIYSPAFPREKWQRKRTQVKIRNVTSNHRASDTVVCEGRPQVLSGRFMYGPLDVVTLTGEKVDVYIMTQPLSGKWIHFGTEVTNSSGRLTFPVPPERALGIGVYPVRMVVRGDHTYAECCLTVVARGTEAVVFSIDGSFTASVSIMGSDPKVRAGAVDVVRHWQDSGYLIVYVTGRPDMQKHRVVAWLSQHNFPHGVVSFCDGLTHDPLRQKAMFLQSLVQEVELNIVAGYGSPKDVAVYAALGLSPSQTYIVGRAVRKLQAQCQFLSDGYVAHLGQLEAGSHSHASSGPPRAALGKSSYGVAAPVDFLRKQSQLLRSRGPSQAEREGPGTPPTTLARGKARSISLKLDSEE
UniProt O00471: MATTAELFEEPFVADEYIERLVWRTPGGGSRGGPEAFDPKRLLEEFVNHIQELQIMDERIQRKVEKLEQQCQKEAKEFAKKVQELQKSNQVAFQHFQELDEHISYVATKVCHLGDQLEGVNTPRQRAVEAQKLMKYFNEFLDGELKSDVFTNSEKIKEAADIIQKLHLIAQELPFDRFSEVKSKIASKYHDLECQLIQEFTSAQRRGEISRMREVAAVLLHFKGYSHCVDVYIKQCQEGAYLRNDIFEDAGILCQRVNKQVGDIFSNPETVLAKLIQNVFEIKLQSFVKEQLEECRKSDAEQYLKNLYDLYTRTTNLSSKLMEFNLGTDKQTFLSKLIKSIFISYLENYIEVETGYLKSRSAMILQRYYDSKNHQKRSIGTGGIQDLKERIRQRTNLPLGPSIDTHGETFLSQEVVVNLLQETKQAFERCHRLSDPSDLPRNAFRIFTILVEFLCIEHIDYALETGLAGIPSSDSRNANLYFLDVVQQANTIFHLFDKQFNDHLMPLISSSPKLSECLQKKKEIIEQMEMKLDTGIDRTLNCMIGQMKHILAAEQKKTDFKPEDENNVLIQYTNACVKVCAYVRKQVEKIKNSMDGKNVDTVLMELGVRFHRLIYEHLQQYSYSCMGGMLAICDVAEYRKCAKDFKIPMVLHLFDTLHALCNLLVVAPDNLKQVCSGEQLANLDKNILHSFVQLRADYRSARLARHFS
UniProt O15151: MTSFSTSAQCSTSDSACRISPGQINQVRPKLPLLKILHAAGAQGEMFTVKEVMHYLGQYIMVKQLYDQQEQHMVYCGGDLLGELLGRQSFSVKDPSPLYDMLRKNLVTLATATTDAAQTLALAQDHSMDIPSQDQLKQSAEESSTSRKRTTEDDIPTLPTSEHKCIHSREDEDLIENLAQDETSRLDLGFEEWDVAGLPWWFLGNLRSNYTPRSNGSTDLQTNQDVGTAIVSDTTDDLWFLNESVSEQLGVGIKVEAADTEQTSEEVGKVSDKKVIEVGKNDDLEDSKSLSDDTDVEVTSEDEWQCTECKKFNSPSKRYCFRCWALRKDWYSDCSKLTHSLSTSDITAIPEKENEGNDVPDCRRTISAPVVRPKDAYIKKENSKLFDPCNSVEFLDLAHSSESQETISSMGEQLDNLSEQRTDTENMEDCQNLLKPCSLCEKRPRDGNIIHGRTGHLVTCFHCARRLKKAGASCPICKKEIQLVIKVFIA

Compound: CCc1cnccc1C(=O)Nc1cc2c(cc1F)NC(=O)CC2
Assay: melting temperature shift (DMSO Tm minus MBE1-treated Tm) in cellular thermal proteome profiling; higher = less thermal stabilization by MBE1 (negative = stabilized by MBE1)
Details: A375; MBE1 concentration: 1 uM

| Target | melting temperature shift [°C] |
| --- | --- |
| DEGS1 (UniProt O15121) | -1.61 |
| MAN2B1 (UniProt O00754) | -3.32 |
| UniProt O15040 | 0.148 |
| SLC16A3 (UniProt O15427) | 1.16 |
| UniProt O14607 | -1.95 |
| UniProt A8MW92 | 0.397 |
| UniProt O00562 | 1.21 |
| UniProt O14523 | 0 |
| UniProt B2RTY4 | 0.641 |
| FANCG (UniProt O15287) | -1.76 |
| RER1 (UniProt O15258) | -1.38 |
| RIOK3 (UniProt O14730) | -1.94 |
| UniProt O15050 | 0.463 |
| RAB27B (UniProt O00194) | 2.12 |
| UniProt O15530 | 0.0794 |
| POLR2D (UniProt O15514) | -1.78 |
| UniProt A5D8V6 | -1.06 |

| Target | melting temperature shift [°C] |
| --- | --- |
| GNPAT (UniProt O15228) | 0.943 |
| UniProt O14647 | -0.275 |
| SART1 (UniProt O43290) | -0.0855 |
| SNAP23 (UniProt O00161) | -2.43 |
| EXOC5 (UniProt O00471) | -0.325 |
| DNM1L (UniProt O00429) | 0.122 |
| UniProt O14653 | 0.287 |
| DAPK3 (UniProt O43293) | -0.588 |
| ABCC4 (UniProt O15439) | -0.452 |
| UniProt O00287 | -5.29 |
| UniProt O15151 | -4.81 |
| UniProt O43157 | -0.416 |
| SCAMP1 (UniProt O15126) | -2.25 |
| UniProt O43167 | 2.36 |
| UniProt O15068 | 2.76 |
| UniProt O43159 | -0.231 |

3 successive entries already listed, for reference:

| Target | melting temperature shift [°C] |
| --- | --- |
| EXOC5 (UniProt O00471) | -0.325 |
| DNM1L (UniProt O00429) | 0.122 |
| UniProt O14653 | 0.287 |
